This is an account of results in PubChem BioAssay (NCATS).

The list shows a part of the results. The main result of the screen is listed elsewhere. These columns were measured beside it and carry no call. The list favours compounds with an active or inconclusive main result. The note in brackets gives the kind of curve behind each potency; many fits are weak.

The test is described as follows: A High-Content qHTS Against Drug Library for the Identification of Small Molecules that Inhibit DYT1 Early Onset Primary Dystonia-Associated Cell Pathology (AID 1645839). The settings on record: HEK293 Flp-In EGFP-delE TorsinA, punctate imaging, 48 h; measured here: cell count cytotoxicity. The method, boiled down:
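Flp-In T-REx 293 cells with tetracycline-inducible EGFP-delE hTOR1A (WT EGFP-hTOR1A as reference), 800 cells/well; compound added with tetracycline, 48 h at 37 C. Fixed, permeabilized cells imaged; %pathology (punctate TorsinA) primary, cell count counterscreen.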
On to `COc1ccc2cc([C@H](C)C(=O)O)ccc2c1`, for which the AC50 was 35.5 µM [rising, single point]. On to `CC(=O)[C@H]1CC[C@H]2[C@@H]3C=CC4=CC(=O)CC[C@@]4(C)[C@@H]3CC[C@]12C`, for which the half-maximal activity concentration (AC50) was 11.2 µM [falling, single point]. With `OC(C#CCN1CCCC1)(c1ccccc1)c1ccccc1` the figure was 20 µM [falling, partial curve, poor fit]. As to `Cc1onc(-c2c(Cl)cccc2Cl)c1C(=O)Cl`, the AC50 was 35.5 µM [rising, single point].

For the molecule `CO[C@@]1(NC(=O)CSCC#N)C(=O)N2C(C(=O)O)=C(CSc3nnnn3C)CS[C@@H]21`, the AC50 was 35.5 µM [rising, single point].

Turning to `Nc1cc(C(F)(F)F)ccc1S`, the AC50 is 12.6 µM [falling, single point].

With `CC(=O)c1cc2ccccc2s1`, the AC50 is 35.5 µM [rising, single point]. With `O=C(O)CNC(=O)CNC(=O)CNC(=O)CSC(=O)c1ccccc1` the figure was 31.6 µM [rising, single point]; with `C/C=C(/C(=C/C)c1ccc(OC(C)=O)cc1)c1ccc(OC(C)=O)cc1`, 5.62 µM [falling, full curve, poor fit]. For the molecule `COc1ccc(/C=C/C(=O)c2ccc(OC)cc2OC)cc1`, the AC50 was 35.5 µM [falling, single point]. Consider `Cc1cccc(C)c1NC(=O)CN(CC(=O)O)CC(=O)O`, for which the AC50 is 12.6 µM [rising, partial curve, poor fit]. With `C/C(=C(\CCOP(=O)(O)O)SC(=O)c1ccccc1)N(C=O)Cc1cnc(C)nc1N` the figure was 1.12 µM [falling, partial curve, poor fit].

For the molecule `CCOc1ccccc1O[C@H](c1ccccc1)[C@H]1CNCCO1`, the AC50 is 2.24 µM [falling, full curve, poor fit]. With `c1ccc(CC2=NCCN2)cc1` the figure was 35.5 µM [rising, single point]; with `NC(=O)c1ccc([N+](=O)[O-])cc1Cl`, 3.55 µM [rising, single point]; with `CC[C@H](c1ccc(O)cc1)[C@@H](CC)c1ccc(O)cc1`, 11.2 µM [falling, single point]. As to `O=C(O)c1ccc[n+]([O-])c1`, the AC50 is 22.4 µM [rising, partial curve, poor fit]. On to `Cc1ncc(CO)c(CO)c1O`, for which the AC50 was 5.01 µM [rising, full curve, poor fit]. Turning to `Oc1cccc2[nH]ccc12`, the AC50 is 7.94 µM [falling, partial curve, poor fit]. With `CCN[C@H]1C[C@H](C)S(=O)(=O)c2sc(S(N)(=O)=O)cc21` the figure was 35.5 µM [falling, partial curve, poor fit]; with `CCC1C(=O)OCC1Cc1cncn1C` (stereo unspecified), 1.41 µM [rising, full curve, poor fit]; with `COC(=O)C1=C(C)NC(C)=C(C(=O)OCCc2ccc(N3CCN(C(c4ccccc4)c4ccccc4)CC3)cc2)C1c1cccc([N+](=O)[O-])c1` (stereo unspecified), 35.5 µM [falling, single point]. With `CCOc1ncc(F)c(=O)[nH]1` the figure was 14.1 µM [rising, single point].

On to `CN(C)CCCN1c2ccccc2CCc2ccccc21`, for which the AC50 was 22.4 µM [falling, single point]. With `Cc1cc(OI)c(C(C)C)cc1-c1cc(C(C)C)c(OI)cc1C` the figure was 35.5 µM [rising, partial curve, poor fit]; with `CCCCCCCCCCCCCCCCC(C(=O)O)C(O)(CC(=O)O)C(=O)O` (stereo unspecified), 3.16 µM [falling, single point]. For `CC(=O)c1ccc2c(c1)N(CCCN1CCC(CCO)CC1)c1ccccc1S2`, the AC50 is 11.2 µM [falling, partial curve, poor fit]. For the molecule `O=C1CC(c2ccc(Cl)cc2)CC(=O)N1`, the AC50 was 35.5 µM [rising, partial curve, poor fit].

For the molecule `CN1CCCCC1CCN1c2ccccc2Sc2ccc(S(C)=O)cc21` (stereo unspecified), the AC50 is 7.94 µM [falling, partial curve, poor fit]. With `Cc1c(-c2ccc(O)cc2)n(Cc2ccc(OCCN3CCCCCC3)cc2)c2ccc(O)cc12` the figure was 2.82 µM [falling, partial curve, poor fit]; with `COc1ccc2cc1Oc1ccc(cc1)C[C@H]1c3c(cc4c(c3Oc3cc5c(cc3OC)CCN(C)[C@@H]5C2)OCO4)CCN1C`, 0.891 µM [falling, full curve].
